The target in one assay is GST-14-3-3ζ (human) (UniProt P63104). Nature of the assay: pull-down; purified GST-14-3-3ζ and glutathione-agarose beads incubated with lysate supernatant of infected cells (control or Par3 shRNA), 4°C overnight; Western blotting; only the target purified.
For assay [1], the target named is 14-3-3ζ protein (human (endogenous in A549 and H1299)) (UniProt P63104). Briefly: co-IP; endogenous proteins; lysates of infected A549 and H1299 cells (control or Par3 shRNA) in IP buffer incubated with anti-Par3 or anti-14-3-3ζ antibody covalently coupled to protein A/G-agarose beads, 4°C overnight; Western blotting. In general terms: A western blot detects proteins with antibodies after separation by electrophoresis.

Chains of the proteins cited; added tags and fusions are not shown.
UniProt P63104: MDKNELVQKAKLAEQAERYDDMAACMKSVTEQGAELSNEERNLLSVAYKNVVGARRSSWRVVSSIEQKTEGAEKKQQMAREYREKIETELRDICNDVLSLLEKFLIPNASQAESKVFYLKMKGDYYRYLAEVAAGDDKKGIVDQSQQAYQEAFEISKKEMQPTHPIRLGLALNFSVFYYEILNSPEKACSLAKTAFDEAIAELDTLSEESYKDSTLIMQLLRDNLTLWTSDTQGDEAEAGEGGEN
UniProt Q8TEW0: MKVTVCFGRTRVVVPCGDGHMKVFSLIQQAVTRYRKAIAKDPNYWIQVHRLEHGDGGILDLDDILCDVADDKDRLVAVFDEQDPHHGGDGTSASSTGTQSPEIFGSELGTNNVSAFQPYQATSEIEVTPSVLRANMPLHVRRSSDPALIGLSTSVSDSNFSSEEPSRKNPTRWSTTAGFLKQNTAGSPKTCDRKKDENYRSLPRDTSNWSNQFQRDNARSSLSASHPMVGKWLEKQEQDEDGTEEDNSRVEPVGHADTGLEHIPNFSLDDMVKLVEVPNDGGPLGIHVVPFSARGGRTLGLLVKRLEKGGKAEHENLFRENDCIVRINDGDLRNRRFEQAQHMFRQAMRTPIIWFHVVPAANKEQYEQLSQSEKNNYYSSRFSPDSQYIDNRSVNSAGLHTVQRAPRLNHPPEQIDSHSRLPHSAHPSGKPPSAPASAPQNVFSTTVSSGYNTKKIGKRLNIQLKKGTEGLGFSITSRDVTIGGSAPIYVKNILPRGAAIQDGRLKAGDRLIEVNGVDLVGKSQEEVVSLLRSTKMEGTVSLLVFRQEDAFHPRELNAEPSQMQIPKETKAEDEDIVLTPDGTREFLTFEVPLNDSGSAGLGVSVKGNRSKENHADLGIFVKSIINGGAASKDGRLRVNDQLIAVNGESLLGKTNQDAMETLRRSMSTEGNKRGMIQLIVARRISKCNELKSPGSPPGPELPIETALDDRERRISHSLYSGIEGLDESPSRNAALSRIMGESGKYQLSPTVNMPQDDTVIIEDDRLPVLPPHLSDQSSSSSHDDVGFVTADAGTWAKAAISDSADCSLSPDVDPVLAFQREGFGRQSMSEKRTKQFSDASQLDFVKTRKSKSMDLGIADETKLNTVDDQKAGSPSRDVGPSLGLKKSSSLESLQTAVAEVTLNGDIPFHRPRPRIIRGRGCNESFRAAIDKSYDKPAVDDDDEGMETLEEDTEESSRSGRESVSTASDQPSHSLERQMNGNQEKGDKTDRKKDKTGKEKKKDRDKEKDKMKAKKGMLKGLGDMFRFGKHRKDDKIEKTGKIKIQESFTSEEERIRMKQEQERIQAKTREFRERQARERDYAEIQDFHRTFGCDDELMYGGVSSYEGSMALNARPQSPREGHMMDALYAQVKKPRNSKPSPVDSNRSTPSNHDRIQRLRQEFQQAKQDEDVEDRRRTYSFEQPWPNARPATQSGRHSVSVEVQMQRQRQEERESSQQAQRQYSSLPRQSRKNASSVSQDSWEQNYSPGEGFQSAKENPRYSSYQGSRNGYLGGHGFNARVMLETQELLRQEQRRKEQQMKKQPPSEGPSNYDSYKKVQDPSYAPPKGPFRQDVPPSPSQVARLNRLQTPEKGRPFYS
UniProt Q13009: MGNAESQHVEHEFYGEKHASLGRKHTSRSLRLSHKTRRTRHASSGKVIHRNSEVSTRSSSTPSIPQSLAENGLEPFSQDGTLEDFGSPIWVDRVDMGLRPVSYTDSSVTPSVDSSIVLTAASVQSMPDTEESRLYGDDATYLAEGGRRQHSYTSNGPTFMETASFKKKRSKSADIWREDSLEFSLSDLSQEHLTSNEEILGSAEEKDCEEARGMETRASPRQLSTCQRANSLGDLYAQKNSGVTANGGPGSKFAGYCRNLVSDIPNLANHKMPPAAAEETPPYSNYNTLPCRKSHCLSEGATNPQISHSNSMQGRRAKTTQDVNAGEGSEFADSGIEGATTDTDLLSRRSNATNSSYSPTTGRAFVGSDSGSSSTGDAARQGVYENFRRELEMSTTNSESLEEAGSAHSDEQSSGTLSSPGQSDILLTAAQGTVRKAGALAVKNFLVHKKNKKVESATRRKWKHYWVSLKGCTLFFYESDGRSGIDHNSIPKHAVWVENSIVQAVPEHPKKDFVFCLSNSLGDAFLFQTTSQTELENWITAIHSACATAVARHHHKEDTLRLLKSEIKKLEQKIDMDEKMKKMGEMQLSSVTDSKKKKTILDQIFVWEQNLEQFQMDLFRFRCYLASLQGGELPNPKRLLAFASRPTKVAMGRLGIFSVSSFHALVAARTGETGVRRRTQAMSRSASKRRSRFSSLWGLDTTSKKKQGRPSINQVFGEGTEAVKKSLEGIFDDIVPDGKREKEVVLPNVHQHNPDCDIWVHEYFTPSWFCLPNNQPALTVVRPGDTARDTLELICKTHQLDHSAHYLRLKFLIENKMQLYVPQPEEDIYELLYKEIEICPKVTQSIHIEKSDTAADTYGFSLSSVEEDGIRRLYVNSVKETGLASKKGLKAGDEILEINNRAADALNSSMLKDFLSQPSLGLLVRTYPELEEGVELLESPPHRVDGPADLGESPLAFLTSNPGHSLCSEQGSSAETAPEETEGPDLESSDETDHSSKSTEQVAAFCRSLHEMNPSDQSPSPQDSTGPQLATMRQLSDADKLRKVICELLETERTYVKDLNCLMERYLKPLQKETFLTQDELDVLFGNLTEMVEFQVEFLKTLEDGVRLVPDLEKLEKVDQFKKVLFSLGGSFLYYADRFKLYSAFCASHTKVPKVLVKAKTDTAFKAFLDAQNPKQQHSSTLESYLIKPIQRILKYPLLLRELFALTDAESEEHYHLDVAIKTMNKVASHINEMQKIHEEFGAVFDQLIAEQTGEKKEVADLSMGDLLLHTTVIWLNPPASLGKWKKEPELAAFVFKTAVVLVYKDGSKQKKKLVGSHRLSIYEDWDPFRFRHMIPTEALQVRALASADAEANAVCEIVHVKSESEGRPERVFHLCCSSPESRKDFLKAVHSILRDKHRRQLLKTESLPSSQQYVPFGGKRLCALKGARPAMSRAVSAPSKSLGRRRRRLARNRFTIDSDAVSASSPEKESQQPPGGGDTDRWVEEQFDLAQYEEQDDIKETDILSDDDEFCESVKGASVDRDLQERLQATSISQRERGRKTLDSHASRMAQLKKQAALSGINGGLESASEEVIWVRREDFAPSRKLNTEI

No constants are given. Whether binding was seen depends on the method and setting. In cells and extracts the contact can be indirect. Some results given as binding are weak or reduced against the parent protein; the word gives no strength.

On to “Partitioning defective protein 3 (Par3) (from UniProt Q8TEW0 1-1356)”, for which the binding result (with GST-14-3-3ζ (human); in assay [1]) was “binds” throughout.
For the substance “Tiam1 (T lymphoma invasion and metastasis) (from UniProt Q13009 1-1591)”, the binding entry (with GST-14-3-3ζ (human); in assay [1]) was “binds” in each case.

For the origin of these results see article PMC5325440.
